Results reported in ChEMBL document CHEMBL1287749, “Acetazolamide-based fungal chitinase inhibitors” (Bioorg Med Chem, 2010).

Target: T1, Endochitinase (Saccharomyces cerevisiae S288c, UniProt P29029)
T1 sequence (P29029 whole entry): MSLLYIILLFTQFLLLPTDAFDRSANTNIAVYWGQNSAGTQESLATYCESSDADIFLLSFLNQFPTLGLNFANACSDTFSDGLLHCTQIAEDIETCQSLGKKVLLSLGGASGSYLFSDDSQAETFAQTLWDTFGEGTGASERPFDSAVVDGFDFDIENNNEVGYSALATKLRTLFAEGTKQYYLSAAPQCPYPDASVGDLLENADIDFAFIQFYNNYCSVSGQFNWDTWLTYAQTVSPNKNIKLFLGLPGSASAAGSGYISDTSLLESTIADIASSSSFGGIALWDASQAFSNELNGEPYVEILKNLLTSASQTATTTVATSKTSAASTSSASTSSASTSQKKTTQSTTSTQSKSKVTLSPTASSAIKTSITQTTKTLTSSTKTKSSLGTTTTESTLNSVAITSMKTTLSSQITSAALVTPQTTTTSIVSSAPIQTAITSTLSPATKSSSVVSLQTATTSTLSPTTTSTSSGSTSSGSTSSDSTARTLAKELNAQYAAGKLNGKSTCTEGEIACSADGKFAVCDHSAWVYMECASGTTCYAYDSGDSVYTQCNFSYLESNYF
Assay: Inhibition of Saccharomyces cerevisiae CTS1

Question: With `CC(=O)Nc1nnc(S(N)(=O)=O)s1` [ACETAZOLAMIDE] as the molecule, how does the Ki read?
Answer: The Ki was 21 µM.
